# PubChem BioAssay AID445 (National Center for Advancing Translational Sciences (NCATS), 2006)
# The other results are listed elsewhere or left out. The main result of the screen is listed elsewhere. These columns were measured beside it and carry no call. The list favours compounds with an active or inconclusive main result. Words in brackets tell the shape of the fitted curve; partial curves, single points and poor fits give uncertain potencies.
# Assay: IkB Signaling
# Conditions: ABC-DLBCL IkBa-CBG/CBR dual luciferase ratio (green luciferase fused to IkBa over red control in OCI-Ly3 lymphoma cells), 4 h
# How it was run: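 In this assay, an IκBα–CBG68 fusion accumulates when IKK-driven degradation is blocked; native CBR normalizes for cell number. OCI-Ly3 cells were treated 4 h with compound and doxycycline, then green and red light read after Chroma-Glo addition.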
# [1] = measured here: control luc red channel unless noted
smiles,measurement,setting,value
COc1ccc(C)cc1-n1nnnc1SCC(=O)N1CCC(C(=O)Nc2nccs2)CC1,AC50,[1],"12.6 µM [falling, partial curve]"
COc1ccc(-c2nc(SCC(=O)Nc3ccc4c(c3)OCCO4)c(-c3ccccc3)[nH]2)cc1,AC50,[1],"6.31 µM [falling, partial curve]"
CCc1ccc(NC(=O)Cn2c(=O)n(-c3cc(C)cc(C)c3)c(=O)c3oc4ccccc4c32)cc1,AC50,[1],"12.6 µM [falling, partial curve]"
Cc1ccc(-n2nc3c(=O)n(CCCC(=O)NC(C)c4ccccc4)nc(C)c3c2C)cc1 (stereo unspecified),AC50,[1],"15.8 µM [falling, partial curve]"
Cc1ccc2oc(C(=O)Nc3sc4c(c3C(=O)NCc3cccnc3)CCCC4)cc(=O)c2c1,AC50,[1],"15.8 µM [rising, partial curve]"
CCCNC(=O)c1cnc2c(-c3ccc(OCC)c(OCC)c3)c(C)nn2c1-c1ccccc1,AC50,[1],"15.8 µM [falling, partial curve]"
CCOC(=O)c1cc(C)n(CC2CCC(C(=O)Nc3cc(OC)cc(OC)c3)CC2)c1C (stereo unspecified),AC50,[1],"6.31 µM [falling, full curve]"
COc1cc(NC(=O)CC(c2cccs2)N2Cc3ccccc3C2=O)cc(OC)c1OC (stereo unspecified),AC50,[1],"31.6 µM [falling, single point]"
O=C1[C@H]2[C@@H](C(=O)N1c1cc(Cl)cc(Cl)c1)[C@]1(C(=O)Nc3ccccc31)N1CCC[C@@H]21,AC50,[1],"10 µM [falling, partial curve]"
COc1ccc(C(=O)N2CCSC2=S)cc1OC,AC50,[1],"25.1 µM [falling, partial curve]"
CC(CC(=O)Nc1ccc(F)cc1)S(=O)(=O)c1cc2c3c(c1)CCN3C(=O)CC2 (stereo unspecified),AC50,[1],"25.1 µM [falling, partial curve]"
C[C@@H](/C=C\c1cccc(Oc2ccc(F)cc2)c1)N(O)C(N)=O,AC50,[1],"39.8 µM [falling, single point]"
Cc1cccc(N2CCN(c3nnnn3-c3ccccc3)CC2C)c1 (stereo unspecified),AC50,[1],"39.8 µM [falling, single point]"
CNc1ccc(-c2nc(-c3ccncc3)no2)cc1[N+](=O)[O-],AC50,[1],"39.8 µM [rising, partial curve]"
CCOC(=O)N1CCN(C(=O)C(C)N(c2ccc(Oc3ccccc3)cc2)S(C)(=O)=O)CC1 (stereo unspecified),AC50,[1],"10 µM [falling, partial curve]"
Cc1ccc(CNc2cc(C)nc3nc(-c4ccc(C)cc4)nn23)cc1,AC50,[1],"7.94 µM [falling, single point]"
CCc1ccc(O)c(N=Cc2ccccc2O)c1,AC50,[1],"20 µM [rising, partial curve] [measured here: IkB-luc green channel]"
Cc1ccc(C)c(NC(=O)c2nc(S(=O)(=O)Cc3ccc(F)cc3)ncc2Cl)c1,AC50,[1],"7.94 µM [falling, full curve]"
Cc1ccsc1C(=O)OCc1csc(-c2ccccc2)n1,AC50,[1],"6.31 µM [falling, partial curve]"
CCc1ccccc1S(=O)(=O)Cc1ccc(C(=O)NCCc2ccc(Cl)cc2)o1,AC50,[1],"10 µM [falling, partial curve]"
COc1cccc(-c2cc(C(=O)NC3CCCC3)no2)c1,AC50,[1],"3.98 µM [falling, full curve]"
CC(C)CCNc1nc(Nc2ccccc2)c2cnn(C)c2n1,AC50,[1],"20 µM [falling, partial curve]"
O=C(Cc1ccc(Cl)cc1)NCCc1csc2nc(-c3ccccc3F)nn12,AC50,[1],"25.1 µM [falling, single point]"
Cc1cc(F)ccc1Nc1nc2ccc(Cl)cc2n2cnnc12,AC50,[1],"0.126 µM [rising, full curve]"
CCOC(=O)c1ccc(-n2c(CCC(=O)O)ccc2-c2ccccc2)cc1O,AC50,[1],"12.6 µM [falling, partial curve]"
C=CCn1c(=O)c(C(=O)Nc2ccccc2C(=O)OCC)c(O)c2ccccc21,AC50,[1],"0.251 µM [falling, full curve]"
Cc1c(NC(=O)c2cccs2)cccc1-c1nc2cc(Cl)ccc2o1,AC50,[1],"10 µM [falling, partial curve]"
CCOc1ccc(NC(=O)c2nc(S(=O)(=O)Cc3ccccc3F)ncc2Cl)cc1,AC50,[1],"6.31 µM [falling, full curve]"
COc1ccc(S(=O)(=O)n2nc(-c3ccco3)nc2NCc2ccc(C(C)C)cc2)cc1,AC50,[1],"3.16 µM [falling, partial curve]"
COc1ccc(S(=O)(=O)NCc2cccn2Cc2cc(C)ccc2C)cc1OC,AC50,[1],"20 µM [falling, partial curve]"
COc1ccc(-c2cc(-c3nc(-c4cc(OC)c(OC)c(OC)c4)no3)[nH]n2)c(OC)c1,AC50,[1],"3.98 µM [falling, full curve]"
Cn1cc(-c2nc3cncnc3n(-c3ccccc3)c2=O)c2ccccc21,AC50,[1],"3.16 µM [falling, partial curve]"
COc1ccc(CNC(=O)CCc2c(C)nc3cc(-c4ccc(OC)cc4OC)nn3c2C)cc1,AC50,[1],"0.501 µM [falling, full curve]"
Cc1cccc(NC(=O)Cn2c(=O)n(CC3CCC(C(=O)NCCc4ccccc4)CC3)c(=O)c3ccccc32)c1 (stereo unspecified),AC50,[1],"3.16 µM [falling, single point]"
CCOC(=O)c1cc(-c2ccc(F)cc2)n(CCC(=O)NC2CCC(C)CC2)c1C (stereo unspecified),AC50,[1],"12.6 µM [falling, single point]"
Cc1ccc(OCCn2c(C3CC(=O)N(Cc4ccc(F)cc4)C3)nc3ccccc32)c(C)c1 (stereo unspecified),AC50,[1],"15.8 µM [falling, partial curve]"
COc1cc(C)c(C(C)C)cc1S(=O)(=O)n1cnc(C)c1,AC50,measured here: IkB-luc green channel,"3.16 µM [rising, full curve]"
same,AC50,measured here: control luc red channel,"0.794 µM [rising, full curve, poor fit]"
Cc1cccc(N2CCN(c3nc4ccccc4c4nnc(C)n34)CC2)c1C,AC50,[1],"39.8 µM [falling, single point]"
COc1ccc(CNC(=O)Cn2cccc2C(=O)c2ccccc2C)cc1,AC50,[1],"15.8 µM [falling, partial curve]"
N#Cc1nc(-c2ccccc2F)oc1NC1CCCCC1,AC50,[1],"2 µM [rising, partial curve]"

# A second format for part of the listing above.
smiles | measurement | setting | value
COc1ccc(CNC(=O)Cn2cccc2C(=O)c2ccccc2C)cc1 | AC50 | [1] | 15.8 µM [falling, partial curve]
N#Cc1nc(-c2ccccc2F)oc1NC1CCCCC1 | AC50 | [1] | 2 µM [rising, partial curve]

# An excerpt of these results, with tabs.
smiles	measurement	setting	value
COc1ccc(S(=O)(=O)n2nc(-c3ccco3)nc2NCc2ccc(C(C)C)cc2)cc1	AC50	[1]	3.16 µM [falling, partial curve]
COc1ccc(CNC(=O)Cn2cccc2C(=O)c2ccccc2C)cc1	AC50	[1]	15.8 µM [falling, partial curve]
